Laboratory results as given in article PMC4931237.
No constants are given. Whether binding was seen depends on the method and setting. Binding seen in cells or lysates may run through a third protein. Some entries that bind do so weakly or less than the wild type.

The chains behind the UniProt entries cited, without tags or fusion partners.
UniProt Q9Z2X8: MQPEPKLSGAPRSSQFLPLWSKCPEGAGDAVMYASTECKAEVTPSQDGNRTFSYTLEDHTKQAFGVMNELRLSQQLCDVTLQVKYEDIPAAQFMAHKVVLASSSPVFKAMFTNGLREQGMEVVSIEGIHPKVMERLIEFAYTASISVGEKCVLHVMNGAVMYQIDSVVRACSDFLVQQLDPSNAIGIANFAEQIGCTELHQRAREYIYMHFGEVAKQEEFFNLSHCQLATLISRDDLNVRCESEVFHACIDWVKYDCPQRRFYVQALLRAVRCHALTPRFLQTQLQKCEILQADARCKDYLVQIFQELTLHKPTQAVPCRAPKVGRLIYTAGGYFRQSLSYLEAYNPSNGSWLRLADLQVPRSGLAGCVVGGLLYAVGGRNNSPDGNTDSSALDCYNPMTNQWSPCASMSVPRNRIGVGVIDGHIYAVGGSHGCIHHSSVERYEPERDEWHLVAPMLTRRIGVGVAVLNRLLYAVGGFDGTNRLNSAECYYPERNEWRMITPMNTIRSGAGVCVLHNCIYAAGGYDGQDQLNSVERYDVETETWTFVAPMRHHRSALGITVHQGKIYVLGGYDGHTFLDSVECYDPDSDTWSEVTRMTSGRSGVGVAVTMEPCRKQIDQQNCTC

Biological target: FLAG-Keap1 (UniProt Q9Z2X8)
Test: co-IP

binding: binds
B1: Nrf2 (endogenous, Huh1 cells) (protein, UniProt Q16236 1-605)
chain: MMDLELPPPGLPSQQDMDLIDILWRQDIDLGVSREVFDFSQRRKEYELEKQKKLEKERQEQLQKEQEKAFFAQLQLDEETGEFLPIQPAQHIQSETSGSANYSQVAHIPKSDALYFDDCMQLLAQTFPFVDDNEVSSATFQSLVPDIPGHIESPVFIATNQAQSPETSVAQVAPVDLDGMQQDIEQVWEELLSIPELQCLNIENDKLVETTMVPSPEAKLTEVDNYHFYSSIPSMEKEVGNCSPHFLNAFEDSFSSILSTEDPNQLTVNSLNSDATVNTDFGDEFYSAFIAEPSISNSMPSPATLSHSLSELLNGPIDVSDLSLCKAFNQNHPESTAEFNDSDSGISLNTSPSVASPEHSVESSSYGDTLLGLSDSEVEELDSAPGSVKQNGPKTPVHSSGDMVQPLSPSQGQSTHVHDAQCENTPEKELPVSPGHRKTPFTKDKHSSRLEAHLTRDELRAKALHIPFPVEKIINLPVVDFNEMMSKEQFNEAQLALIRDIRRRGKNKVAAQNCRKRKLENIVELEQDLDHLKDEKEKLLKEKGENDKSLHLLKKQLSTLYLEVFSMLRDEDGKPYSPSEYSLQQTRDGNVFLVPKSKKPDVKKN
